# Source: PubChem BioAssay AID2685 (National Center for Advancing Translational Sciences (NCATS), 2010)
# The list shows a part of the results. Further columns of the screen follow, without active or inactive calls. Compounds called inactive in the main read-out are mostly missing here. Potencies come from curve fits of mixed quality, noted in brackets.
# Test: qHTS Assay for Lipid Storage Modulators in Drosophila S3 Cells;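 for cell number change: cells counted by Cell Tracker Red CMTPX staining in the red channel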
# Details: BODIPY lipid droplet fluorescence, 18-24 h; for cell number change: measured here: cell count max response, cells fed with added oleic acid
# Outline: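 Laser-scanning cytometry quantifies lipid droplet accumulation (500–530 nm total intensity; droplet/cell object ratio) in oleic acid-fed (400 uM added) Drosophila S3 cells treated with a concentration series. 20 uM Triacsin C defined 100% inhibition.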
# [1] = measured here: cell number channel AC50, cells fed with added oleic acid
# [2] = measured here: lipid fluorescence (Fed channel) AC50, cells fed with added oleic acid
SMILES,cell number change [%],AC50 [1],AC50 [2]
COc1ccccc1NC(=O)Cn1nnc(-c2ccccc2NC(=O)c2ccco2)n1,-47.4,"20.6 µM [falling, single point]","0.291 µM [rising, partial curve, poor fit]"
C=CCSc1nc2sc3c(c2c(=O)n1CC)CCc1ccccc1-3,-24.5,–,"18.4 µM [rising, partial curve, poor fit]"
O=C(Nc1ncc(S(=O)(=O)c2ccc([N+](=O)[O-])cc2)s1)c1ccc2ccccc2c1,-12.3,"0.00517 µM [falling, full curve, poor fit]","20.6 µM [falling, single point]"
Cc1ccc(C2C(C#N)=C(N)Oc3n[nH]c(-c4cccs4)c32)s1 (stereo not given),-20.5,–,"16.4 µM [falling, single point]"
O=C(Nc1nnc(-c2ccccc2)s1)c1ccc(Cl)c(S(=O)(=O)N2CCOCC2)c1,6.65,–,–
CC1CC(C)CN(CCCCOc2ccc([N+](=O)[O-])cc2)C1 (stereo not given),-44.5,"18.4 µM [falling, partial curve]","0.0651 µM [falling, full curve, poor fit]"
COC(=O)C(C)(C(=O)OC)c1ccccc1[N+](=O)[O-],50.4,"13 µM [rising, partial curve]",–
Cc1cc([N+](=O)[O-])ccc1NCc1cccc([N+](=O)[O-])c1,-6.42,–,"29.1 µM [falling, single point]"
COCCCN1CN=C(NS(=O)(=O)c2ccc(C)cc2)NC1,3.85,–,–
O=C(NC1CC1)C1CCN(c2ccc(S(=O)(=O)N3CCOCC3)cc2Cl)CC1,16,–,–
CCOC(=O)C1=C(COC(=O)C(C)(C)Oc2ccc(Cl)cc2)NC(=O)NC1C (stereo not given),-1.3,–,"0.411 µM [rising, full curve, poor fit]"
COc1ccc(C(=O)Nc2ccccc2C(=O)NC(Cc2ccc(O)cc2)C(=O)NNC(=O)c2ccc(C)cc2)cc1 (stereo not given),-31.6,"29.1 µM [falling, single point]","0.461 µM [rising, partial curve, poor fit]"
CCNC(=S)NNC(=O)C1CCN(Cc2ccccc2)CC1,10,–,"5.17 µM [falling, partial curve]"
OC(CNCc1ccc(F)cc1)(c1ccc(F)cc1)c1ccc(F)cc1,-41.3,"32.6 µM [falling, single point]",–
CCCCn1c(SCC(=O)Nc2cc(C)on2)nc2c1c(=O)n(C)c(=O)n2C,–,"5.8 µM [rising, single point]","0.116 µM [falling, single point]"
Cc1nc2c(ccc3nc(NC(=O)Cc4cccc5ccccc45)sc32)s1,-41,"13 µM [falling, partial curve, poor fit]","13 µM [falling, partial curve]"
O=C(COC(=O)COc1ccc(Cl)cc1)NCc1cccs1,5.17,–,"0.0731 µM [rising, full curve, poor fit]"
CCCCOc1cccc(OCCCC)c1C(=O)Nc1cc(C)on1,–,"3.66 µM [rising, single point]","0.58 µM [rising, single point]"
O=C(O)c1cccc(-n2nc(-c3ccc(Cl)c([N+](=O)[O-])c3)c3ccccc3c2=O)c1,-2.99,–,"29.1 µM [falling, single point]"
CCSc1nnc(NC(=O)CCc2ccc(OC)cc2)s1,5.72,–,"18.4 µM [rising, single point]"
Cc1ccc(CC(=O)NCCc2ccc(S(N)(=O)=O)cc2)cc1,20.4,–,"29.1 µM [rising, single point]"
O=C(COC(=O)c1ccccc1Nc1ccccc1)Nc1ccccc1,-2.3,–,"0.0731 µM [falling, full curve, poor fit]"
CN(C)S(=O)(=O)c1ccc(C(=O)Nc2ccc(OCC(=O)N3CCOCC3)cc2)cc1,3.26,–,"32.6 µM [falling, single point]"
O=C(Nc1ccc(C(F)(F)F)cc1)c1ccccc1-n1cnnn1,-5.81,–,"6.51 µM [rising, single point]"
CC(=O)Nc1ccc(NC(=O)C(C)OC(=O)CCC2CCCC2)cc1 (stereo not given),-26.4,"0.731 µM [falling, full curve]","0.82 µM [falling, full curve]"
Cc1nc(NC(=O)C2CC2)sc1C(=O)Nc1ccccc1Cl,-1.75,–,–
CCCNNC(=O)C(O)(c1cccc(C)c1)c1cccc(C)c1,3.77,–,"29.1 µM [falling, single point]"
O=S(=O)(c1ccc(S(=O)(=O)N2CCN(C3CCCCC3)CC2)cc1)N1CCCCCC1,10.2,–,–
COc1ccc(NC(=O)c2cncc(Br)c2)cc1S(=O)(=O)N1CCCCC1,–,–,"6.51 µM [falling, single point]"
Cc1cc2cc(C(c3nnnn3C3CCCC3)N(Cc3cccnc3)Cc3ccco3)c(=O)[nH]c2cc1C (stereo not given),15.8,–,"6.51 µM [rising, partial curve]"

# Quoted at random: 2 records from the list.
SMILES,cell number change [%],AC50 [1],AC50 [2]
COc1ccccc1NC(=O)Cn1nnc(-c2ccccc2NC(=O)c2ccco2)n1,-47.4,"20.6 µM [falling, single point]","0.291 µM [rising, partial curve, poor fit]"
COc1ccc(NC(=O)c2cncc(Br)c2)cc1S(=O)(=O)N1CCCCC1,–,–,"6.51 µM [falling, single point]"
